Data as given in PubChem BioAssay AID651640 (Broad Institute, 2012).
“And” between values parts separate entries of the source, which are not always exact repeats. Equal entries are not always repeated. Hit rate of the full screen: of about 350,000 compounds, about 6,000 (1.7%) were called active. Inconclusive means that the source gave no clear call. Such entries were picked first, then a sample of the others. Rule as the data show it: active = CPE inhibition above about 20% (passing the limit was not always enough); inconclusive = no clear call, values can overlap the other calls; tested in BHK-21 cells. Where a structure was tested more than once in an assay, its records may differ in their call.

Assay: protection of cells from dengue 2 killing – plate reader, single concentration, primary screen (AID 651640);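 also: 0% = median of neutral control wells and 100% = median of positive control wells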
Details: DENV2-infected cells, cytopathic effect rescue, at 9.99 µM, stronger effect = higher value
In the case of `Cc1ccc(C(=O)N[C@@H](C)CN2C3=NC[C@H](C(C)C)N3C[C@H]2Cc2ccc(O)cc2)cc1Br`, the CPE inhibition is reported as active: 106%. With `Cc1ccc(C(=O)OCC(=O)N2C(C)CCCC2C)cc1S(=O)(=O)N1CCOCC1` (stereo not drawn) the CPE inhibition was active: 25.1%. In the case of `COc1cccc(S(=O)(=O)Nc2ccc3c(c2)[C@H]2C[C@H](CC(=O)NCCc4ccccc4)O[C@H](CO)[C@H]2O3)c1`, the CPE inhibition is reported as inactive: 15.9%. For `Cc1noc(C)c1NC(=O)Nc1ccc2c(c1)C(=O)N([C@@H](C)CO)C[C@@H](C)[C@H](CN(C)C(=O)Nc1cccc3ccccc13)O2`, the CPE inhibition was inactive: 13%. With `COc1ccc(/C=C/C(=O)OCC(=O)NC2CCCC(C)C2C)c(OC)c1` (stereo not drawn) the CPE inhibition was inconclusive: 22.9%. With `CN(C)C(=O)c1cccc(-c2ccc(C3[C@@H]4CN(S(=O)(=O)c5cccc(Cl)c5)C[C@H]3N4)cc2)c1` (stereo partly drawn) the CPE inhibition was inactive: -2.06%. For `O=C(Nc1ccccc1)N1C[C@@H]2[C@H](c3ccccc31)[C@@H](CO)N2Cc1ccccc1Cl`, the CPE inhibition was active: 36.6%. In the case of `CNC[C@H]1Oc2ccc(NC(=O)Nc3ccccc3)cc2C(=O)N([C@H](C)CO)C[C@H]1C`, the CPE inhibition is reported as inconclusive: 46%. With `CCCNC(=O)N1C[C@H](O)COC[C@@H]2O[C@@H](CC(=O)N3CCC(Cc4ccccc4)CC3)CC[C@H]21` the CPE inhibition was inconclusive: 28.5%. For `CCOC(=O)NC(=O)COC(=O)CNC(=O)c1cccc(OC)c1`, the CPE inhibition was inconclusive: 64%. In the case of `CCc1cnc(N2[C@H](C#N)[C@H](c3ccc(C4=CCCC4)cc3)[C@@H]2CO)s1`, the CPE inhibition is reported as active: 42.6%. In the case of `C[C@@H]1CN([C@H](C)CO)S(=O)(=O)c2ccc(C#Cc3ccccc3F)cc2O[C@@H]1CN(C)C(=O)Cc1ccccc1`, the CPE inhibition is reported as inactive: -1.63% and inactive: 2.22%. For `C[C@@H]1CN([C@H](C)CO)C(=O)Cc2cc(NC(=O)Cc3ccccc3)ccc2O[C@@H]1CN(C)S(=O)(=O)c1cccs1`, the CPE inhibition was inconclusive: 28.3%. For `Cc1ccc(NC(=O)Nc2cc(-c3ccccc3)nn2C)cc1Cl`, the CPE inhibition was inconclusive: 55.2%. With `C/C=C/C=C/C(=O)c1cc(C)c(OC(=O)CNC(=O)OC(C)(C)C)c(C)c1O` the CPE inhibition was inconclusive: 40%. In the case of `COCC(=O)N(C)C[C@@H]1Oc2ncc(C#C[C@H](C)O)cc2C(=O)N([C@H](C)CO)C[C@H]1C`, the CPE inhibition is reported as inactive: -1.28%. With `CN(C)C(=O)C[C@H]1CC[C@H]2[C@@H](COc3ccc(NC(=O)c4cnccn4)cc3C(=O)N2C)O1` the CPE inhibition was active: 59.7%. For `COc1ccc(OCCSc2nc3ccccc3n2CCC(=O)O)cc1`, the CPE inhibition was inconclusive: 30.7%. With `CCCNC(=O)C[C@H]1CC[C@@H]2[C@@H](COc3ccc(NC(=O)CC)cc3C(=O)N2C)O1` the CPE inhibition was inactive: 4.46%. For `C[C@@H]1CCCCO[C@@H](CN(C)C(=O)C2CCCCC2)[C@H](C)CN([C@@H](C)CO)C(=O)c2cc(NC(=O)Cc3ccccc3)ccc2O1`, the CPE inhibition was inconclusive: 42.1%. In the case of `Cc1noc(C)c1S(=O)(=O)Nc1cccc2c1O[C@H](CN(C)C(=O)NC(C)C)[C@H](C)CN([C@@H](C)CO)C2=O`, the CPE inhibition is reported as active: 87.8%. For `CC1CC2C(C(O)CC3(C)C2CCC3(O)C(=O)CO)C2(C)C=CC(=O)C=C12` (stereo not drawn), the CPE inhibition was inactive: -3.5%. In the case of `Cc1ccc(CNC(=O)C(CC(C)C)OC(=O)c2ccco2)cc1` (stereo not drawn), the CPE inhibition is reported as active: 30.5%. With `Cc1cc(=O)oc2cc(OCC(=O)N3CCN(c4ccc(F)cc4)CC3)ccc12` the CPE inhibition was inconclusive: 32.9%. In the case of `Cc1nc2ccc(Cl)cc2c(-c2ccccc2)c1C(=O)N(C)C`, the CPE inhibition is reported as inactive: 7.51%. For `C[C@@H]1CN([C@@H](C)CO)C(=O)c2cc(C3=CCCCC3)cnc2O[C@H]1CN(C)C(=O)Nc1cccc(F)c1`, the CPE inhibition was active: 29.7% and inconclusive: 52.1%. With `COc1ccccc1NC(=O)CSc1ccc(-c2ccc(-n3cccn3)cc2)nn1` the CPE inhibition was inactive: 2.68%. In the case of `C[C@H]1CN([C@@H](C)CO)S(=O)(=O)c2ccc(C#CC(C)(C)O)cc2O[C@H]1CN(C)C(=O)CC1CC1`, the CPE inhibition is reported as inactive: -5.21%. In the case of `CC(=O)COC(=O)C1CC(=O)N(c2ccc(C)c(C)c2)C1` (stereo not drawn), the CPE inhibition is reported as inactive: 18.5%. With `COc1ccc(NC(=O)N(C)C[C@H]2Oc3ccc(NS(C)(=O)=O)cc3CC(=O)N([C@@H](C)CO)C[C@@H]2C)cc1` the CPE inhibition was inactive: 2.17%. For `O=C1C2C3c4ccccc4C(c4ccccc43)[C@@H]2C(=O)N1c1ccccn1` (stereo partly drawn), the CPE inhibition was inconclusive: 21.5%. In the case of `COc1ccc(N2C(=O)C(CC(=O)Nc3ccccc3)N(CCc3ccc(OC)c(OC)c3)C2=O)cc1` (stereo not drawn), the CPE inhibition is reported as inactive: -4.79%. In the case of `O=C(Nc1ccc(F)cc1)N1C[C@H]2[C@@H](c3ccccc31)[C@@H](CO)N2Cc1ccccc1Cl`, the CPE inhibition is reported as active: 30%. For `C[C@H](CO)N1C[C@H](C)[C@@H](CN(C)CC2CCCCC2)Oc2ccc(NC(=O)CCC(F)(F)F)cc2C1=O`, the CPE inhibition was inactive: 5.59%. In the case of `O=C(CC(F)(F)F)N1C[C@H]2[C@@H](c3ccccc31)[C@H](CO)N2C(=O)C1CCCC1`, the CPE inhibition is reported as inactive: -3.83%. For `CCC(C)NC(=O)CSc1nc2c(sc(=S)n2-c2cc(Cl)ccc2OC)c(=O)[nH]1` (stereo not drawn), the CPE inhibition was inactive: 11.8%. For `CCOC(=O)c1sc(NC(=O)C(C)(C)C)cc1C`, the CPE inhibition was inconclusive: 21%. For `C[C@@H]1CN([C@H](C)CO)C(=O)c2cc(NC(=O)CCN3CCOCC3)ccc2O[C@H]1CN(C)C(=O)Nc1ccc(F)cc1`, the CPE inhibition was inconclusive: 23.5%. For `CNC[C@H]1Oc2c(NC(=O)NC3CCCCC3)cccc2C(=O)N([C@H](C)CO)C[C@@H]1C`, the CPE inhibition was inconclusive: 20.1%. For `Cc1c(C(=O)N2CCN(CCc3ccccn3)CC2)oc2ccc(F)cc12`, the CPE inhibition was inconclusive: 31.2%. For `CC(C(=O)N1CCCCC1)N(C)CC(=O)Nc1ccc(F)c(F)c1F` (stereo not drawn), the CPE inhibition was inconclusive: 26.9%. In the case of `COc1ccc2c3c([nH]c2c1)[C@@H](CO)N(C(=O)Nc1ccc(F)cc1)CC31CCN(S(=O)(=O)c2cccs2)CC1`, the CPE inhibition is reported as inconclusive: 21.2%. For `Cc1cc(C)c(S(=O)(=O)N2CCN(C(=O)c3cc4ccccc4o3)CC2)c(C)c1`, the CPE inhibition was inconclusive: 55.6%. For `Cc1ccccc1OCCCCN1CCCCC1`, the CPE inhibition was active: 33.9%. In the case of `COc1ccc(N2CS(=O)CC2=O)cc1` (stereo not drawn), the CPE inhibition is reported as inconclusive: 24.8%. In the case of `C[C@@H]1C=C(C(=O)N2CCN(Cc3ccc4c(c3)OCO4)CC2)O[C@H](OCCCCO)C1`, the CPE inhibition is reported as active: 21.4%. With `CC(Oc1ccc(Cl)cc1Cl)C(=O)NCCCN1CCOCC1` (stereo not drawn) the CPE inhibition was active: 62.5%. With `C[C@H](CO)N1C[C@H](C)[C@H](CN(C)C(=O)Nc2ccc3c(c2)OCO3)Oc2ccc(NC(=O)Cc3cn(C)c4ccccc34)cc2C1=O` the CPE inhibition was inactive: -5.14%. For `CCc1ccccc1Nc1ncnc2ccccc12`, the CPE inhibition was inactive: -5.6%. For `CO[C@@H]1CN(C)C(=O)c2cc(NC(=O)Nc3c(C)noc3C)ccc2OC[C@H](C)N(C)C[C@@H]1C`, the CPE inhibition was inactive: -4.52%. For `Cn1c(=N)n(CC(=O)c2ccc(Br)cc2)c2ccccc21`, the CPE inhibition was active: 65.7%. For `Nc1c(C(=O)Nc2cccc(F)c2)nnn1-c1cccc(C(F)(F)F)c1`, the CPE inhibition was inactive: 5.84%. For `O=C(COC(=O)/C=C/c1ccccc1)NC1CCCC1`, the CPE inhibition was inconclusive: 22.6%. In the case of `COc1cc(CCc2ccccc2)c(C(=O)O)c(O)c1C/C=C(/C)CCC=C(C)C`, the CPE inhibition is reported as inconclusive: 51.5%. For `COc1ccc(NC(=O)N(C)C[C@@H]2Oc3ccc(NC(=O)NC(C)C)cc3CC(=O)N([C@H](C)CO)C[C@H]2C)cc1`, the CPE inhibition was inactive: -6.24%. With `O=C(CN1C(=O)c2ccccc2C1=O)NCCc1c[nH]c2ccccc12` the CPE inhibition was inconclusive: 32.4%. With `COc1ccccc1N=NC1C(=O)N(C(N)=S)N=C1C` (stereo not drawn) the CPE inhibition was inconclusive: 38%. With `O=C(Cc1ccccn1)N1CC(=O)N2[C@H](CO)[C@@H](c3ccc(C#CCC4CCCC4)cc3)[C@H]2C1` the CPE inhibition was inconclusive: 57.9%. For `CC(OC(=O)Cc1ccc(F)cc1)C(=O)N1CCc2ccccc21` (stereo not drawn), the CPE inhibition was inconclusive: 31.8%. In the case of `COc1cccc(OCc2cc(C(=O)N3CCN(C4CCCC4)CC3)no2)c1`, the CPE inhibition is reported as inconclusive: 20.1%. In the case of `COc1ccc(-c2nc(CN3CCC(C(=O)NC4CCCc5ccccc54)CC3)c(C)o2)cc1OC` (stereo not drawn), the CPE inhibition is reported as inconclusive: 22.9%. For `COC(=O)N1C[C@H](O)[C@H](O)C[C@@H]1c1ccccc1Br`, the CPE inhibition was inconclusive: 46%. With `COc1ccc(CCNC2CCC(c3ccccc3)CC2)cc1` (stereo not drawn) the CPE inhibition was inconclusive: 33.1%. In the case of `COC(=O)CN1C(=O)[C@H]2[C@@H](c3ccc(C)o3)N3C(=O)CN(Cc4ccccc4)C(=O)[C@@]3(Cc3ccccc3)[C@H]2C1=O`, the CPE inhibition is reported as inconclusive: 50.6%. In the case of `COc1ccccc1C(=O)N/C(=C\c1ccc2c(c1)OCO2)C(=O)NCCc1nc2ccccc2[nH]1`, the CPE inhibition is reported as inconclusive: 23.9%. In the case of `Cc1ccccc1OCC(=O)Nc1nnc(S(=O)(=O)N2CCCC2)s1`, the CPE inhibition is reported as inconclusive: 32.1%. For `CCC(=O)Nc1ccc2c(c1)OC[C@H](C)N(C(=O)c1cnccn1)C[C@@H](C)[C@H](OC)CN(C)C2=O`, the CPE inhibition was inactive: -6.21%. For `Cc1noc(C)c1S(=O)(=O)N(C)C[C@H]1Oc2ccc(NC(=O)Nc3ccc(F)cc3)cc2CC(=O)N([C@@H](C)CO)C[C@@H]1C`, the CPE inhibition was inconclusive: 80.9%. For `CCCCOC(=O)/C=C\C(=O)OCCCC`, the CPE inhibition was inconclusive: 29.4%. For `CC(C)NC(=O)N(C)C[C@@H]1Oc2c(NC(=O)NC3CCCCC3)cccc2C(=O)N([C@@H](C)CO)C[C@@H]1C`, the CPE inhibition was inconclusive: 21.3%. With `CCOC(=O)C1=C(C)NC(C)=C(C(=O)OCC)C1C` the CPE inhibition was inactive: -7.07%. For `COc1cc(OC)cc(-c2sc3ccc(OC)cc3c2-c2ccc3cc[nH]c3c2)c1`, the CPE inhibition was inconclusive: 29.6%. For `CCOc1ccc(Cl)cc1CNCCCSc1nc(C)cc(C)n1`, the CPE inhibition was inactive: -5.76%.
